According to patent US20230058895A1, “PHYSIOLOGICALLY ACCEPTABLE EUTECTIC MIXTURES OF CANNABIDIOL” (priority 2021, published 2023):

What was measured:
[1] = Solubility of CBD and CBD EM in triglycerides / lipids (MCT or LCT oils); type: physicochemical; details: ambient temperature, CBD without EM
[2] = existing oral dosage forms (e.g., Epidiolex, softgels, tablets, edibles); Millar et al. 2020; cited from earlier work

Compound: C=C(C)[C@@H]1CCC(C)=C[C@H]1c1c(O)cc(CCCCC)cc1O [CBD, cannabidiol]
- CBD solubility in MCT or LCT oils [1]: 25-35 % w/w
- bioavailability (BA) [2]: about 6%
